# The list shows a part of the results.
# B1: HA-61200 (Pseudomonas aeruginosa), Q02SP8_PSEAB (protein)
# chain: MNKCYALVWNVSQGCWNVVSEGSRRRGKPAGAKAAIASVLALLGATALAPAYALPSGGTVVGGSANGEIHLSGGNSLSVNQKVDKLIANWDSFSVAAGERVIFNQPSSSSIALNRVIGTKASDIQGRIDANGQVFLVNPNGVLFGRGAQVNVGGLVASTLDITDAEFNGNSSRYRFTGPSTNGVLNHGGAITAAEGGSIALLGAQVDNRGTVLAQMGGVGLGAGSDLTLNFDGNKLLDIRVDAGVANALASNGGLLKADGGRVLMAARTANALLNTVVNSQGAIEARSLRGKNGRIVLDG
# What was measured:
# Experiment in all cases: glycan array binding signal (z-score within array); higher = stronger binding
# Conditions in all cases: glycan notation: IUPAC condensed, linker removed
# [1] = target: Fuc(a1-2)[Gal(a1-3)]Gal(b1-4)GlcNAc(b1-2)Man(a1-3)[Fuc(a1-2)[Gal(a1-3)]Gal(b1-4)GlcNAc(b1-2)Man(a1-6)]Man(b1-4)GlcNAc(b1-4)GlcNAc
# In short: (§1)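 From the Consortium for Functional Glycomics database, 3228 arrays were curated, keeping only those whose protein sequence was available. Binding is given as a within-array Z-score averaged across arrays sharing a protein sequence and across linkers. Negative Z-scores can be read as non-binding.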
# [2] = target: Fuc(a1-2)[Gal(a1-3)]Gal(b1-4)GlcNAc(b1-2)Man(a1-3)[Fuc(a1-2)[Gal(a1-3)]Gal(b1-4)GlcNAc(b1-2)Man(a1-6)]Man(b1-4)GlcNAc(b1-4)[Fuc(a1-6)]GlcNAc
# In short: as §1
# [3] = target: Fuc(a1-2)[Gal(a1-3)]Gal(b1-4)GlcNAc(b1-3)GalNAc
# In short: as §1
# [4] = target: Fuc(a1-2)[Gal(a1-3)]Gal(b1-4)GlcNAc(b1-3)[Fuc(a1-2)[Gal(a1-3)]Gal(b1-4)GlcNAc(b1-6)]GalNAc
# In short: as §1
# [5] = target: Fuc(a1-2)[Gal(a1-3)]Gal(b1-4)GlcNAc(b1-6)GalNAc
# In short: as §1
# [6] = target: Fuc(a1-2)[Gal(a1-3)]Gal(b1-4)[Fuc(a1-3)]Glc
# In short: as §1
# [7] = target: Fuc(a1-2)[Gal(a1-3)]Gal(b1-4)[Fuc(a1-3)]GlcNAc
# In short: as §1
# [8] = target: Fuc(a1-2)[Gal(a1-3)]Gal(b1-4)[Fuc(a1-3)]GlcNAc(b1-3)GalNAc
# In short: as §1
# [9] = target: Fuc(a1-2)[Gal(a1-4)]Gal(b1-4)GlcNAc
# In short: as §1
# [10] = target: Fuc(a1-2)[GalNAc(a1-3)]Gal
# In short: as §1
# [11] = target: Fuc(a1-2)[GalNAc(a1-3)]Gal(b1-3)GalNAc(a1-3)[Fuc(a1-2)]Gal(b1-4)GlcNAc
# In short: as §1
# [12] = target: Fuc(a1-2)[GalNAc(a1-3)]Gal(b1-3)GalNAc(b1-3)Gal(a1-4)Gal(b1-4)Glc
# In short: as §1
# [13] = target: Fuc(a1-2)[GalNAc(a1-3)]Gal(b1-3)GlcNAc
# In short: as §1
# [14] = target: Fuc(a1-2)[GalNAc(a1-3)]Gal(b1-3)GlcNAc(b1-2)Man(a1-3)[Fuc(a1-2)[GalNAc(a1-3)]Gal(b1-3)GlcNAc(b1-2)Man(a1-6)]Man(b1-4)GlcNAc(b1-4)GlcNAc
# In short: as §1
# [15] = target: Fuc(a1-2)[GalNAc(a1-3)]Gal(b1-3)GlcNAc(b1-2)Man(a1-3)[Fuc(a1-2)[GalNAc(a1-3)]Gal(b1-3)GlcNAc(b1-2)Man(a1-6)]Man(b1-4)GlcNAc(b1-4)[Fuc(a1-6)]GlcNAc
# In short: as §1
# [16] = target: Fuc(a1-2)[GalNAc(a1-3)]Gal(b1-3)GlcNAc(b1-3)GalNAc
# In short: as §1
# [17] = target: Fuc(a1-2)[GalNAc(a1-3)]Gal(b1-3)GlcNAc(b1-6)GalNAc
# In short: as §1
# [18] = target: Fuc(a1-2)[GalNAc(a1-3)]Gal(b1-4)Glc
# In short: as §1
# [19] = target: Fuc(a1-2)[GalNAc(a1-3)]Gal(b1-4)GlcNAc
# In short: as §1
# [20] = target: Fuc(a1-2)[GalNAc(a1-3)]Gal(b1-4)GlcNAc(b1-2)Man
# In short: as §1
# [21] = target: Fuc(a1-2)[GalNAc(a1-3)]Gal(b1-4)GlcNAc(b1-2)Man(a1-3)[Fuc(a1-2)[GalNAc(a1-3)]Gal(b1-4)GlcNAc(b1-2)Man(a1-6)]Man(b1-4)GlcNAc(b1-4)GlcNAc
# In short: as §1
# [22] = target: Fuc(a1-2)[GalNAc(a1-3)]Gal(b1-4)GlcNAc(b1-2)Man(a1-3)[Fuc(a1-2)[GalNAc(a1-3)]Gal(b1-4)GlcNAc(b1-2)Man(a1-6)]Man(b1-4)GlcNAc(b1-4)[Fuc(a1-6)]GlcNAc
# In short: as §1
# [23] = target: Fuc(a1-2)[GalNAc(a1-3)]Gal(b1-4)GlcNAc(b1-3)Gal(b1-4)GlcNAc
# In short: as §1
# [24] = target: Fuc(a1-2)[GalNAc(a1-3)]Gal(b1-4)GlcNAc(b1-3)Gal(b1-4)GlcNAc(b1-3)Gal(b1-4)GlcNAc
# In short: as §1
# [25] = target: Fuc(a1-2)[GalNAc(a1-3)]Gal(b1-4)GlcNAc(b1-3)GalNAc
# In short: as §1
# [26] = target: Fuc(a1-2)[GalNAc(a1-3)]Gal(b1-4)GlcNAc(b1-3)[Fuc(a1-2)[GalNAc(a1-3)]Gal(b1-4)GlcNAc(b1-6)]GalNAc
# In short: as §1
# [27] = target: Fuc(a1-2)[GalNAc(a1-3)]Gal(b1-4)GlcNAc(b1-6)GalNAc
# In short: as §1
# [28] = target: Fuc(a1-2)[GalNAc(a1-3)]Gal(b1-4)[Fuc(a1-3)]GlcNAc
# In short: as §1
# [29] = target: Fuc(a1-2)[GalNAc(a1-3)]Gal(b1-4)[Fuc(a1-3)]GlcNAc(b1-3)GalNAc
# In short: as §1
# [30] = target: Fuc(a1-2)[GalNAc(a1-4)]Gal(b1-4)GlcNAc
# In short: as §1
# [31] = target: Fuc(a1-2)[GalNAc(b1-3)]Gal
# In short: as §1
# Fuc(a1-3)GlcNAc = target: Fuc(a1-3)GlcNAc
# In short: as §1
# [32] = target: Fuc(a1-3)[Gal(b1-4)]Glc6S
# In short: as §1
# [33] = target: Fuc(a1-3)[Gal(b1-4)]GlcNAc
# In short: as §1
# [34] = target: Fuc(a1-3)[Gal(b1-4)]GlcNAc(b1-2)Man
# In short: as §1
# [35] = target: Fuc(a1-3)[Gal(b1-4)]GlcNAc(b1-2)Man(a1-3)[Fuc(a1-3)[Gal(b1-4)]GlcNAc(b1-2)Man(a1-6)]Man(b1-4)GlcNAc(b1-4)GlcNAc
# In short: as §1
# [36] = target: Fuc(a1-3)[Gal(b1-4)]GlcNAc(b1-2)Man(a1-3)[Fuc(a1-3)[Gal(b1-4)]GlcNAc(b1-2)Man(a1-6)]Man(b1-4)GlcNAc(b1-4)[Fuc(a1-6)]GlcNAc
# In short: as §1
# [37] = target: Fuc(a1-3)[Gal(b1-4)]GlcNAc(b1-3)Gal(b1-3)[Fuc(a1-4)]GlcNAc
# In short: as §1
# [38] = target: Fuc(a1-3)[Gal(b1-4)]GlcNAc(b1-3)Gal(b1-4)[Fuc(a1-3)]GlcNAc
# In short: as §1
# [39] = target: Fuc(a1-3)[Gal(b1-4)]GlcNAc(b1-3)Gal(b1-4)[Fuc(a1-3)]GlcNAc(b1-3)Gal(b1-4)[Fuc(a1-3)]GlcNAc
# In short: as §1
# [40] = target: Fuc(a1-3)[Gal(b1-4)]GlcNAc(b1-3)GalNAc
# In short: as §1
# [41] = target: Fuc(a1-3)[Gal(b1-4)]GlcNAc(b1-6)GalNAc
# In short: as §1
# [42] = target: Fuc(a1-3)[Gal(b1-4)]GlcNAc(b1-6)[Gal(b1-3)GlcNAc(b1-3)]Gal(b1-4)Glc
# In short: as §1
# [43] = target: Fuc(a1-3)[Gal(b1-4)]GlcNAc6S
# In short: as §1
# [44] = target: Fuc(a1-3)[Gal3S(b1-4)]Glc
# In short: as §1
# [45] = target: Fuc(a1-3)[Gal3S(b1-4)]GlcNAc
# In short: as §1
# [46] = target: Fuc(a1-3)[Gal3S(b1-4)]GlcNAc6S
# In short: as §1
# [47] = target: Fuc(a1-3)[GalNAc(b1-4)]GlcNAc
# In short: as §1
# [48] = target: Fuc(a1-3)[GalNAc(b1-4)]GlcNAc6S
# In short: as §1
# Fuc(a1-4)GlcNAc = target: Fuc(a1-4)GlcNAc
# In short: as §1
# Fuc(b1-3)GlcNAc = target: Fuc(b1-3)GlcNAc
# In short: as §1
# Gal(a1-2)Gal = target: Gal(a1-2)Gal
# In short: as §1
# Gal(a1-3)Gal = target: Gal(a1-3)Gal
# In short: as §1
# Gal(a1-3)Gal(b1-3)GlcNAc = target: Gal(a1-3)Gal(b1-3)GlcNAc
# In short: as §1
# [49] = target: Gal(a1-3)Gal(b1-3)GlcNAc(b1-2)Man
# In short: as §1
# [50] = target: Gal(a1-3)Gal(b1-3)GlcNAc(b1-2)Man(a1-3)[Gal(a1-3)Gal(b1-3)GlcNAc(b1-2)Man(a1-6)]Man(b1-4)GlcNAc(b1-4)GlcNAc
# In short: as §1
# [51] = target: Gal(a1-3)Gal(b1-3)GlcNAc(b1-3)GalNAc
# In short: as §1
# [52] = target: Gal(a1-3)Gal(b1-3)GlcNAc(b1-6)GalNAc
# In short: as §1
# [53] = target: Gal(a1-3)Gal(b1-3)[Fuc(a1-4)]GlcNAc(b1-2)Man(a1-3)[Gal(a1-3)Gal(b1-3)[Fuc(a1-4)]GlcNAc(b1-2)Man(a1-6)]Man(b1-4)GlcNAc(b1-4)GlcNAc
# In short: as §1
# Gal(a1-3)Gal(b1-4)Glc = target: Gal(a1-3)Gal(b1-4)Glc
# In short: as §1
binder,measurement,setting,value
B1,glycan array binding signal (z-score),[1],0.438
same,glycan array binding signal (z-score),[2],0.235
same,glycan array binding signal (z-score),[3],0.218
same,glycan array binding signal (z-score),[4],0.378
same,glycan array binding signal (z-score),[5],-0.574
same,glycan array binding signal (z-score),[6],-0.521
same,glycan array binding signal (z-score),[7],-0.072
same,glycan array binding signal (z-score),[8],1.01
same,glycan array binding signal (z-score),[9],0.037
same,glycan array binding signal (z-score),[10],-0.045
same,glycan array binding signal (z-score),[11],-0.324
same,glycan array binding signal (z-score),[12],-0.03
same,glycan array binding signal (z-score),[13],0.017
same,glycan array binding signal (z-score),[14],-0.739
same,glycan array binding signal (z-score),[15],-0.684
same,glycan array binding signal (z-score),[16],0.951
same,glycan array binding signal (z-score),[17],-0.055
same,glycan array binding signal (z-score),[18],-0.302
same,glycan array binding signal (z-score),[19],-0.46
same,glycan array binding signal (z-score),[20],0.117
same,glycan array binding signal (z-score),[21],-0.808
same,glycan array binding signal (z-score),[22],1.6
same,glycan array binding signal (z-score),[23],0.054
same,glycan array binding signal (z-score),[24],0.917
same,glycan array binding signal (z-score),[25],-0.326
same,glycan array binding signal (z-score),[26],-0.788
same,glycan array binding signal (z-score),[27],-0.432
same,glycan array binding signal (z-score),[28],-0.283
same,glycan array binding signal (z-score),[29],1.74
same,glycan array binding signal (z-score),[30],-0.386
same,glycan array binding signal (z-score),[31],-0.608
same,glycan array binding signal (z-score),Fuc(a1-3)GlcNAc,-0.88
same,glycan array binding signal (z-score),[32],0.202
same,glycan array binding signal (z-score),[33],-0.322
same,glycan array binding signal (z-score),[34],0.155
same,glycan array binding signal (z-score),[35],-0.467
same,glycan array binding signal (z-score),[36],1.94
same,glycan array binding signal (z-score),[37],-0.864
same,glycan array binding signal (z-score),[38],-0.066
same,glycan array binding signal (z-score),[39],-0.104
same,glycan array binding signal (z-score),[40],-0.408
same,glycan array binding signal (z-score),[41],0.649
same,glycan array binding signal (z-score),[42],-0.636
same,glycan array binding signal (z-score),[43],1.51
same,glycan array binding signal (z-score),[44],-0.319
same,glycan array binding signal (z-score),[45],-0.343
same,glycan array binding signal (z-score),[46],-0.041
same,glycan array binding signal (z-score),[47],0.68
same,glycan array binding signal (z-score),[48],-0.44
same,glycan array binding signal (z-score),Fuc(a1-4)GlcNAc,-0.926
same,glycan array binding signal (z-score),Fuc(b1-3)GlcNAc,-0.707
same,glycan array binding signal (z-score),Gal(a1-2)Gal,-1
same,glycan array binding signal (z-score),Gal(a1-3)Gal,-0.38
same,glycan array binding signal (z-score),Gal(a1-3)Gal(b1-3)GlcNAc,-0.705
same,glycan array binding signal (z-score),[49],-0.054
same,glycan array binding signal (z-score),[50],5.54
same,glycan array binding signal (z-score),[51],-0.047
same,glycan array binding signal (z-score),[52],0.334
same,glycan array binding signal (z-score),[53],0.726
same,glycan array binding signal (z-score),Gal(a1-3)Gal(b1-4)Glc,-0.013

# Part of the list above, reformatted.
binder	measurement	setting	value
B1	glycan array binding signal (z-score)	[51]	-0.047
same	glycan array binding signal (z-score)	[52]	0.334
